# From the supplement of paper PMC11732987, “Enantioselective OTUD7B fragment discovery through chemoproteomics screening and high-throughput optimisation” (Communications Chemistry, 2025)
# The chains behind the UniProt entries cited, without tags or fusion partners. Where a name states a change or a piece, a line headed by the entry shows the natural chain unless it says otherwise. Residues count along the entry.
# UniProt Q16822: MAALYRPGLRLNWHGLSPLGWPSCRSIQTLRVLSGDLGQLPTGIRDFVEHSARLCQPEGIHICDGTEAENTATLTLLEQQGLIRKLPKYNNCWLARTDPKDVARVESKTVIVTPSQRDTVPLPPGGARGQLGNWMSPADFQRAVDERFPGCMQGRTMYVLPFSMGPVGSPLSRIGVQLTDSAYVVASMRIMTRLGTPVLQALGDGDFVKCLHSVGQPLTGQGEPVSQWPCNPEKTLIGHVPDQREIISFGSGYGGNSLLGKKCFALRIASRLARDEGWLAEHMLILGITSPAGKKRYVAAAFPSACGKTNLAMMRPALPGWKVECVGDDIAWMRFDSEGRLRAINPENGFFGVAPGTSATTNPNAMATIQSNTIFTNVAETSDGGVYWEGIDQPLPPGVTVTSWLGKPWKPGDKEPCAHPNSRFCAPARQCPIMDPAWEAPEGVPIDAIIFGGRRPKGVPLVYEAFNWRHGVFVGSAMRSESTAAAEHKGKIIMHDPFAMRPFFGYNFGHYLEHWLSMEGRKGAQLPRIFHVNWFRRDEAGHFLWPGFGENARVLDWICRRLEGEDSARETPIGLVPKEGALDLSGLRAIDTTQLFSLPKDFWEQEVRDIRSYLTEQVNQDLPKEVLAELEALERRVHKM
# UniProt Q01804: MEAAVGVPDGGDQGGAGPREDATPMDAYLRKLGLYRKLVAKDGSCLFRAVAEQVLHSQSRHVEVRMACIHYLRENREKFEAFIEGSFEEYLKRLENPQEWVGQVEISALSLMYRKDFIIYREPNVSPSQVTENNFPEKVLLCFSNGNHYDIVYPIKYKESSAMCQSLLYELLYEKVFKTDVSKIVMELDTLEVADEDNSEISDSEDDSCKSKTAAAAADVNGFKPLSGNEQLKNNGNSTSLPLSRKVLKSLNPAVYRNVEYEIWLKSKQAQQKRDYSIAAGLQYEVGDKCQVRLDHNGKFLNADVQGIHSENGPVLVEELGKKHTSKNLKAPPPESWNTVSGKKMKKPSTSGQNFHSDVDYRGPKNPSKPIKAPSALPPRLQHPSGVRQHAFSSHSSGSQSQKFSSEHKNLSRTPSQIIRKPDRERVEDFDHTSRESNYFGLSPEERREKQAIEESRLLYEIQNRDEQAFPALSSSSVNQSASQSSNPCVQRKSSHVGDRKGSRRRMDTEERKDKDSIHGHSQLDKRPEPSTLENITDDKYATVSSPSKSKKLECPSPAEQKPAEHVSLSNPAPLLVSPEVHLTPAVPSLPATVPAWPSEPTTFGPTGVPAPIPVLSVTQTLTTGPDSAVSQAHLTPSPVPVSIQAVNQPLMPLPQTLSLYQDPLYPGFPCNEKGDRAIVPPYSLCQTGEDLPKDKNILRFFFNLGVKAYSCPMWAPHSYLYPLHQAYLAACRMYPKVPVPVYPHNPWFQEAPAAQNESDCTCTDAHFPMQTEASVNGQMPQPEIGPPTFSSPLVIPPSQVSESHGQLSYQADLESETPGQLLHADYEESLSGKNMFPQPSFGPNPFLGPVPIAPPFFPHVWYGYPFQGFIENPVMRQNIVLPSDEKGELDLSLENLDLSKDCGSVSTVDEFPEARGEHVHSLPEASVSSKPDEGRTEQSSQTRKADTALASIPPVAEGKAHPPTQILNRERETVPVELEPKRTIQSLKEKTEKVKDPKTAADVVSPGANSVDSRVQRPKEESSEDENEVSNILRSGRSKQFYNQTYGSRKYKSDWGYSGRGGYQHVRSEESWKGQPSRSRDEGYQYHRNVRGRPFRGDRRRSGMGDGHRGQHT
# UniProt Q15365: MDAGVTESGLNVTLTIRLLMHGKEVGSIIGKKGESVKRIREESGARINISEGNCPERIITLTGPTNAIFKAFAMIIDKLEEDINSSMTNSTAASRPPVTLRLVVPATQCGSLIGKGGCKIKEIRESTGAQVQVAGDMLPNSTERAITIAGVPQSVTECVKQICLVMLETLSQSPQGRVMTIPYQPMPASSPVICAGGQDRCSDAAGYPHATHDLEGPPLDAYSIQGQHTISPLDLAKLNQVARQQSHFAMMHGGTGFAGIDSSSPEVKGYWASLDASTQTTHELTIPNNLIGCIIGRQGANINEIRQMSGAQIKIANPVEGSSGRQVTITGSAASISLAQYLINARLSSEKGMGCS
# UniProt Q8IXK0: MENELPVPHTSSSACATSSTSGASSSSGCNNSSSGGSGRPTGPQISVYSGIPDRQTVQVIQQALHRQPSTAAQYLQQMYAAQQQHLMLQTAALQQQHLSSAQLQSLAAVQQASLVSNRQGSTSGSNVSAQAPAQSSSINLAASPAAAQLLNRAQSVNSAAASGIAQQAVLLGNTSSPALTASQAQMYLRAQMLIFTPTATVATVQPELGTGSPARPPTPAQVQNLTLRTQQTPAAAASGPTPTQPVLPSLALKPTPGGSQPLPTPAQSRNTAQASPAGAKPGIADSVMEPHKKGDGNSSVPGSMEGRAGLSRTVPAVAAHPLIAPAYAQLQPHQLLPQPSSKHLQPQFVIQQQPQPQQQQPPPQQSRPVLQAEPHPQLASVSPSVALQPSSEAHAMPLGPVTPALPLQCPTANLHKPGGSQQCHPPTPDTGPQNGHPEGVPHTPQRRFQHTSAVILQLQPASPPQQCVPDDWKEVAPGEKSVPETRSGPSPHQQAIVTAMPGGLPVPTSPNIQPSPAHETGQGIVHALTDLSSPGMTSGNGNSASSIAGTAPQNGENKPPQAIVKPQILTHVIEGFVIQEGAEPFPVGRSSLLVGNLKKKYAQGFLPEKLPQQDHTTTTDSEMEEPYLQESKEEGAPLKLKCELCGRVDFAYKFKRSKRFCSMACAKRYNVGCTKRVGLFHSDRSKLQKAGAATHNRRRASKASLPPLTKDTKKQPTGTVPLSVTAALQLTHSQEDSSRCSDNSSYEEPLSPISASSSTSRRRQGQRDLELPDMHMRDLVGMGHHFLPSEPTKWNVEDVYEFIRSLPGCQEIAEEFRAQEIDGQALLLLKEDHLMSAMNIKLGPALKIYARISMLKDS
# UniProt Q15102: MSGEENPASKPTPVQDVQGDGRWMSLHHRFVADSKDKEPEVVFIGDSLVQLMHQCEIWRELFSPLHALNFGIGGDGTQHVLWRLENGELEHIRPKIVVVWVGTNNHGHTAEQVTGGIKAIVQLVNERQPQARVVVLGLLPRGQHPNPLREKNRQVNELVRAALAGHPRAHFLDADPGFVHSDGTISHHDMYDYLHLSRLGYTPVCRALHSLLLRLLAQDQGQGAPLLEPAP
# UniProt Q9BRP1: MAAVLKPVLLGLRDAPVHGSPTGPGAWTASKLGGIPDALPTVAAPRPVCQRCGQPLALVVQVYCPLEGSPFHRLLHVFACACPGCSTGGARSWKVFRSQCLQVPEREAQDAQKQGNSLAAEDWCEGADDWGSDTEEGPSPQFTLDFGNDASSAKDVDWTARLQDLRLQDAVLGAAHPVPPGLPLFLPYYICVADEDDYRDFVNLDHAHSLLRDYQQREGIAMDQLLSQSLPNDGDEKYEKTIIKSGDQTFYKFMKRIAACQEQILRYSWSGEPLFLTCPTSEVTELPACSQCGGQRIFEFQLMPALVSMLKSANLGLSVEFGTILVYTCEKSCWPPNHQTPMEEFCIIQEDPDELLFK
# UniProt Q3KNV8: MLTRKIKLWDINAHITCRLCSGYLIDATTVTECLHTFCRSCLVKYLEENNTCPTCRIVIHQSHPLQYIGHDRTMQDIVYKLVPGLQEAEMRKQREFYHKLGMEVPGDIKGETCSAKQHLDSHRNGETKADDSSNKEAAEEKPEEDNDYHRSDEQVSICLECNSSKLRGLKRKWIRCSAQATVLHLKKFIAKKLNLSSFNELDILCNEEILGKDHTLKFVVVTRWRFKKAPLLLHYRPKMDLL
# UniProt Q53EL6: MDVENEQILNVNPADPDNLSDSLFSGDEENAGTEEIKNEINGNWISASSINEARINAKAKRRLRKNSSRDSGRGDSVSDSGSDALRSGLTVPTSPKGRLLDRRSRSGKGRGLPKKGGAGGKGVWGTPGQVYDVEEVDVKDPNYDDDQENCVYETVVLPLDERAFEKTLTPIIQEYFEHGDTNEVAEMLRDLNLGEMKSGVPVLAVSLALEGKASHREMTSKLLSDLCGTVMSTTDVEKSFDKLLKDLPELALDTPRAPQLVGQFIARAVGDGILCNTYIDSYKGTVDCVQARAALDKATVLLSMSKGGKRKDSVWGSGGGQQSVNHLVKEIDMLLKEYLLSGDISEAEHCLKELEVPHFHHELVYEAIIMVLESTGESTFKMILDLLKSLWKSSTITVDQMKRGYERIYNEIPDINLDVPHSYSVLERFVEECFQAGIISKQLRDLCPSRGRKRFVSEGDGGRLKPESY
# UniProt P55809: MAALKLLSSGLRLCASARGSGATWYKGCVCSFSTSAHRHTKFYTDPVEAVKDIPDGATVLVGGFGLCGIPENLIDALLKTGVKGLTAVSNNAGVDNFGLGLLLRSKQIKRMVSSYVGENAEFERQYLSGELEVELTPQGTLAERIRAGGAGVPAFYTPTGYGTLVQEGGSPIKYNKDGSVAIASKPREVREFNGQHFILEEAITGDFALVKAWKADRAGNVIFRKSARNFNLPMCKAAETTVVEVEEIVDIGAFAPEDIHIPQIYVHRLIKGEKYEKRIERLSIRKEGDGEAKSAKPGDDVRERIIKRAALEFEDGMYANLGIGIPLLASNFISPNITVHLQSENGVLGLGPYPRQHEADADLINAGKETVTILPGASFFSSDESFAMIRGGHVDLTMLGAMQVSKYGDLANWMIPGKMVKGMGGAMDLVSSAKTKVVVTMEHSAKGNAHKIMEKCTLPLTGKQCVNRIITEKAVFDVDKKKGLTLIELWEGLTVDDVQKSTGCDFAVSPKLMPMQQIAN
# UniProt P12004, 118-138: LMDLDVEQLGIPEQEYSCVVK
# UniProt Q9H792: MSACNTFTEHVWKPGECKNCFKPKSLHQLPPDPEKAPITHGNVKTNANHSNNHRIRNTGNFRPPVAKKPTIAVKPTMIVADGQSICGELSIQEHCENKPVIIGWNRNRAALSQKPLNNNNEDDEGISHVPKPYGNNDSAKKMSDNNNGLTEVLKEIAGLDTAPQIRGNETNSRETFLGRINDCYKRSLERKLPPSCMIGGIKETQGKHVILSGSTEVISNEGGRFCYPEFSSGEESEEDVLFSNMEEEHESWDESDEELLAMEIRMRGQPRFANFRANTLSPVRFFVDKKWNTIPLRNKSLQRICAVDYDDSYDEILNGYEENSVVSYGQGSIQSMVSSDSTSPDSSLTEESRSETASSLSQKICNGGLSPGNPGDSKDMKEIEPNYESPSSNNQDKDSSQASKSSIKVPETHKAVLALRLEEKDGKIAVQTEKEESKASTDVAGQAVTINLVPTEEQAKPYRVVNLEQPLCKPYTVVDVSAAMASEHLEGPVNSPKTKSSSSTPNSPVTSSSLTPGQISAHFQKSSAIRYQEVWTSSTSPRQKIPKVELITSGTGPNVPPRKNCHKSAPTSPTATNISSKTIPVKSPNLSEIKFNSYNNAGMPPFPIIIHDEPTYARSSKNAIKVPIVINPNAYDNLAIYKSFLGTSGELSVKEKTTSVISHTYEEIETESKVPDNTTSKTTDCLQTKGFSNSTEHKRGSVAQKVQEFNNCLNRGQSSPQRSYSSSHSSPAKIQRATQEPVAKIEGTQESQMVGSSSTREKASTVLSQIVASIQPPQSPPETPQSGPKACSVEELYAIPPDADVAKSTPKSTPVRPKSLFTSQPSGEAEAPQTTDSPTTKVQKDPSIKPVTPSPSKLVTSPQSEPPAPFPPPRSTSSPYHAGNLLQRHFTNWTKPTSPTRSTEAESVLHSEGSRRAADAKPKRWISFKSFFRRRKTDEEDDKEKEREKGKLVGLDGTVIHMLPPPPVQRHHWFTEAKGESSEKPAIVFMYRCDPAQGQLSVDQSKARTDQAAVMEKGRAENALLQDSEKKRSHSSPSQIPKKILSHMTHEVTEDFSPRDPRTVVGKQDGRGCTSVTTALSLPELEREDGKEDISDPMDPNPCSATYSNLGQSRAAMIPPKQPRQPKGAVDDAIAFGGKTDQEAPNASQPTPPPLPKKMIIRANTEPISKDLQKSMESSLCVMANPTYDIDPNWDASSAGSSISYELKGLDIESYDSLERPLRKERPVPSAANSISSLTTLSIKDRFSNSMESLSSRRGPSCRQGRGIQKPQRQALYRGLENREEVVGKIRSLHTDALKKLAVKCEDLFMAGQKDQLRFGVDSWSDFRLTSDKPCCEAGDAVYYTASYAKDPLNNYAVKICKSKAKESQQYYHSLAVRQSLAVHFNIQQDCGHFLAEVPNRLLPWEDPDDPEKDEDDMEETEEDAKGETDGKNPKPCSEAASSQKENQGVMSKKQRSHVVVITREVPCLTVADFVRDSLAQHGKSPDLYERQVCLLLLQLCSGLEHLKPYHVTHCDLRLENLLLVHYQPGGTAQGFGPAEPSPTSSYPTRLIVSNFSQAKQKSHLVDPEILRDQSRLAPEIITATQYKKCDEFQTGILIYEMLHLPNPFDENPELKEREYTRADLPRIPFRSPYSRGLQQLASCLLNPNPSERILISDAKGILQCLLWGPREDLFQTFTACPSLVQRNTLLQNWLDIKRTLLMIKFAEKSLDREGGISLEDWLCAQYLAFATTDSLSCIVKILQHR
# The other results are listed elsewhere or left out. The data scatter; read single values as rough.
# Compound: ClCC(=O)N[C@@H]1CCCc2ccccc12
# Test: log2 mean competition ratio of IA-DTB cysteine labelling (DMSO/compound) (log2 ratio); higher = stronger cysteine engagement by compound
# Conditions: 50 µM; treatment time: 4 h; cell line lysate: HEK293T
# Experimental: (§1)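 IA-DTB competitive cysteine chemoproteomics in HEK293T RIPA lysate. Lysates were treated with compound 29 or 30 at 50 or 200 µM for 4 h, then IA-DTB (500 µM, 1 h), trypsin-digested, NeutrAvidin-enriched and analysed by diaPASEF. Competition ratio = intensity DMSO / intensity compound (n=4 treated, n=64 DMSO); binding: mean log2 CR ≥ 1 and p ≤ 0.05 plus QC filters. Target is the cysteine site.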
row,Target,log2 mean competition ratio
1,PAK2 C480 (UniProt Q13177),-0.0574
2,PCK2 C306 (UniProt Q16822),0.443
3,OTUD4 C903 (UniProt Q01804),-0.224
4,PABPC1 C132,-0.0888
5,PCBP1 C109 (UniProt Q15365),-0.0599
6,PHC2 C809 (UniProt Q8IXK0),-0.193
7,PAFAH1B3 C205 (UniProt Q15102),0.0372
8,PDK1 C421,0.0274
9,PDCD2L C260 (UniProt Q9BRP1),-0.224
10,PCGF3 C113 (UniProt Q3KNV8),-0.205
11,PDCD4 C433 (UniProt Q53EL6),-0.124
12,PAICS C281,-0.269
13,PCM1 C957 (UniProt Q15154),0.165
14,OXCT1 C456 (UniProt P55809),-0.00424

# Same assay, conditions: 200 µM; treatment time: 4 h; cell line lysate: HEK293T
row,Target,log2 mean competition ratio
1,PAK2 C480 (UniProt Q13177),0.0965
2,PCK2 C306 (UniProt Q16822),0.26
3,OTUD4 C903 (UniProt Q01804),-0.232
4,PABPC1 C132,-0.0898
5,PCBP1 C109 (UniProt Q15365),-0.162
6,PHC2 C809 (UniProt Q8IXK0),-0.287
7,PAFAH1B3 C205 (UniProt Q15102),-0.138
8,PDK1 C421,0.099
9,PDCD2L C260 (UniProt Q9BRP1),0.0391
10,PCGF3 C113 (UniProt Q3KNV8),0.0647
11,PDCD4 C433 (UniProt Q53EL6),-0.445
12,PAICS C281,-0.0667
13,PCM1 C957 (UniProt Q15154),0.32
14,OXCT1 C456 (UniProt P55809),-0.38

# Compound: ClCC(=O)N[C@H]1CCCc2ccccc12
# Test: as above
# Conditions: 50 µM; treatment time: 4 h; cell line lysate: HEK293T
# Experimental: as §1
row,Target,log2 mean competition ratio
1,PDXDC1 C425 (UniProt Q6P996),0.174
2,PDLIM5 C479 (UniProt Q96HC4),0.164
3,PHF19 C498 (UniProt Q5T6S3),0.0405
4,PDS5B C579 (UniProt Q9NTI5),0.0343
5,PAK2 C480 (UniProt Q13177),-0.286
6,PCK2 C306 (UniProt Q16822),0.676
7,OTUD4 C903 (UniProt Q01804),0.0775
8,PABPC1 C132,-0.0904
9,PARP1 C256 (UniProt P09874),0.458
10,PCBP1 C109 (UniProt Q15365),-0.0539
11,PHC2 C809 (UniProt Q8IXK0),-0.0384
12,PAFAH1B3 C205 (UniProt Q15102),0.297
13,PDK1 C421,0.284
14,PARP9 C728 (UniProt Q8IXQ6),-0.00544
15,PDCD2L C260 (UniProt Q9BRP1),-0.314
16,PDCD11 C599 (UniProt Q14690),-0.14
17,PCYT1A C5 (UniProt P49585),-0.206
18,PCNA C135 (UniProt P12004),-0.165
19,PFKFB3 C440 (UniProt Q16875),0.3

row,Target,log2 mean competition ratio
1,PCGF3 C113 (UniProt Q3KNV8),-0.598
2,PEAK1 C993 (UniProt Q9H792),0.318
3,PEAK1 C365 (UniProt Q9H792),0.164
4,P4HA1 C503 (UniProt P13674),0.341
5,PFAS C1044 (UniProt O15067),0.107
6,PDCD4 C433 (UniProt Q53EL6),-0.508
7,PAXIP1 C933 (UniProt Q6ZW49),0.0135
8,PCBP4 C58,-0.365
9,PAPSS2 C350 (UniProt O95340),0.671
10,PCLAF C54 (UniProt Q15004),0.318
11,PAICS C281,0.168
12,PCM1 C957 (UniProt Q15154),-0.261
13,PHACTR4 C328 (UniProt Q8IZ21),0.439
14,PEAK1 C1437 (UniProt Q9H792),0.0367
15,PDCD11 C81 (UniProt Q14690),0.0424
16,PEX5 C423,0.337
17,OXCT1 C456 (UniProt P55809),0.464
18,PES1 C272 (UniProt O00541),0.41

# Same assay, conditions: 200 µM; treatment time: 4 h; cell line lysate: HEK293T
row,Target,log2 mean competition ratio
1,PDXDC1 C425 (UniProt Q6P996),0.332
2,PDLIM5 C479 (UniProt Q96HC4),-0.0837
3,PHF19 C498 (UniProt Q5T6S3),-0.142
4,PDS5B C579 (UniProt Q9NTI5),0.544
5,PAK2 C480 (UniProt Q13177),-0.00325
6,PCK2 C306 (UniProt Q16822),0.292
7,OTUD4 C903 (UniProt Q01804),-0.0829
8,PABPC1 C132,0.0736
9,PARP1 C256 (UniProt P09874),0.0115
10,PCBP1 C109 (UniProt Q15365),-0.0547
11,PHC2 C809 (UniProt Q8IXK0),-0.341
12,PAFAH1B3 C205 (UniProt Q15102),0.0469
13,PDK1 C421,0.164
14,PARP9 C728 (UniProt Q8IXQ6),-0.00466
15,PDCD2L C260 (UniProt Q9BRP1),0.0357
16,PDCD11 C599 (UniProt Q14690),-0.0126
17,PCYT1A C5 (UniProt P49585),0.277
18,PCNA C135 (UniProt P12004),-0.0531
19,PFKFB3 C440 (UniProt Q16875),-0.0325

row,Target,log2 mean competition ratio
1,PCGF3 C113 (UniProt Q3KNV8),-0.00705
2,PEAK1 C993 (UniProt Q9H792),-0.261
3,PEAK1 C365 (UniProt Q9H792),0.049
4,P4HA1 C503 (UniProt P13674),-0.0239
5,PFAS C1044 (UniProt O15067),0.0496
6,PDCD4 C433 (UniProt Q53EL6),-0.308
7,PAXIP1 C933 (UniProt Q6ZW49),-0.00589
8,PCBP4 C58,0.0433
9,PAPSS2 C350 (UniProt O95340),0.0743
10,PCLAF C54 (UniProt Q15004),-0.279
11,PAICS C281,-0.198
12,PCM1 C957 (UniProt Q15154),0.288
13,PHACTR4 C328 (UniProt Q8IZ21),0.147
14,PEAK1 C1437 (UniProt Q9H792),-0.196
15,PDCD11 C81 (UniProt Q14690),0.0305
16,PEX5 C423,0.0594
17,OXCT1 C456 (UniProt P55809),0.142
18,PES1 C272 (UniProt O00541),0.158
